# This list was built around the results that the source calls inconclusive (neither active nor inactive); the mix of calls is not that of the screen. Potencies beside an inconclusive call are fits to weak or partial responses and may not hold up. Calls of active or inactive are those of the source. The calls were made as follows: active = hit-call score of the fitted dose curve at least 0.9, where 1 is the maximum; inconclusive = response in the unintended direction; inactive = score below 0.9.
# Protein sequences, listed by entry. Tags and fused reporters are not part of them.
# UniProt P13631, whole entry, looked up: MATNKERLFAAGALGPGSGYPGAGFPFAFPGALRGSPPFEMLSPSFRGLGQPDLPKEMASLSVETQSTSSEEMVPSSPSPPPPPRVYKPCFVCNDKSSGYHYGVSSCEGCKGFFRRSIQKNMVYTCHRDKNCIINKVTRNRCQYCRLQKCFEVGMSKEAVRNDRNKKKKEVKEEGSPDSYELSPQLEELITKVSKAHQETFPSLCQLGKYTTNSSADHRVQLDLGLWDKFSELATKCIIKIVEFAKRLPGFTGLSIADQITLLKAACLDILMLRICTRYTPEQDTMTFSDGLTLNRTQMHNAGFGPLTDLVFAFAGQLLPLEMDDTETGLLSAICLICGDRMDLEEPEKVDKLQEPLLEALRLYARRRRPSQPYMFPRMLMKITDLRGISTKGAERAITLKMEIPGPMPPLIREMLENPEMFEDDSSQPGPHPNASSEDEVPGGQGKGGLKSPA
# Target: human Retinoic Acid Receptor gamma (RARg), RARG (gene 5916) (UniProt P13631)
# Assay: ATG_RARg_TRANS: Attagene TRANS-FACTORIAL HepG2 Assay for human Retinoic Acid Receptor gamma (RARg) (AID 2283009);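 as to AC50: AC50 is for reporter induction above DMSO meaning RARg activation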
# Procedure: ATG_TRANS is a cell-based, multiplexed-readout assay that uses HepG2, a human liver cell line, with measurements taken at 24 hours after chemical dosing in a 24-well plate.ATG_RARg_TRANS is one of 30 assay component(s) measured or calculated from the ATG_TRANS assay. It is designed to make measurements of mRNA induction, a form of inducible reporter, as detected with fluorescence intensity signals by Reverse transcription polymerase chain reaction (RT-PCR) and Capillary electrophoresis technology.Data from the assay component ATG_RARg_TRANS was analyzed into 1 assay endpoint. This assay endpoint, ATG_RARg_TRANS, was analyzed in the positive analysis fitting direction relative to DMSO as the negative control and baseline of activity. Using a type of inducible reporter, measures of mRNA for gain-of-signal activity can be used to understand the reporter gene at the transcription factor-level as they relate to the gene RARG. Furthermore, this assay endpoint can be referred to as a primary readout, because this assay has produced multiple assay endpoints where this one serves a reporter gene function. To generalize the intended target to other relatable targets, this assay endpoint is annotated to the nuclear receptor intended target family, where the subfamily is non-steroidal.
# Human liver HepG2 cells are transiently transfected with multiple reporter transcription units (MRTUs) in 6-well plates using FuGene 6 reagent (Roche; 3 ml FuGene/1 mg DNA). The MRTU constructs are regulated by a cis-regulating element (promoter). […] A major difference between the CIS and TRANS system is that in CIS activities of endogenous TFs are measured, whereas the TRANS assay evaluates changes in activities of exogenous, chimeric NR-Gal4 proteins. […] At the end of 24 hour incubation, total RNA was isolated using TriZol reagent (Invitrogen). The isolated RNA is then reverse-transcribed using oligo(dT) primer and Mo-MLV reverse transcriptase (Invitrogen) with DNAse I (Ambion) treatment for 30 min. The one-tenth of the produced cDNA was amplified by PCR using Taq DNA polymerase (Invitrogen) and two reporter sequence-specific primers. The PCR products were fluorescently labeled by primer extension with 6-arboxyfluorescein (6-FAM) 5'-labeled reporter sequence-specific primer (2 min at 95 C, 20 s at 68 C and 10 min at 72 C) and these products were digested with 5U of HpaI (New England Biolabs) for 2h at 37 C. […] The raw capillary electrophoresis data was processed using Attagraph software (Attagene).
Structure (SMILES),AC50,outcome
COC(=O)c1ccc(OC)cc1,inconclusive: 166 µM,
CC(=O)CC(C)(C)C1CCCCC1,,inactive
CCCCCC(=O)O,,inactive
Cc1cc(N)n(-c2ccccc2)n1,inconclusive: 164 µM,
CCCCCCCCCCCCCCCO,inconclusive: 100 µM,
COc1cc2c(c(OC)c1OC)-c1ccc(OC)c(=O)cc1[C@@H](NC(C)=O)CC2,,inactive
COc1ccc(OC)c(N=Nc2c(O)ccc3ccccc23)c1,inconclusive: 100 µM,
O=S(=O)(O)c1cccc2c(S(=O)(=O)O)cccc12,inconclusive: 100 µM,
O=[N+]([O-])c1cc(N(CCO)CCO)ccc1NCCO,inconclusive: 100 µM,
O=C(O)c1cc2ccccc2cc1O,inconclusive: 181 µM,
Nc1c(S(=O)(=O)O)cc(Br)c2c1C(=O)c1ccccc1C2=O,inconclusive: 28.8 µM,
CC(O)C1CCCCC1 (stereo not given),,inactive
Cc1ccc(S(N)(=O)=O)cc1,,inactive

Structure (SMILES),AC50,outcome
O=C(O)CCCCCCCCCCCC(=O)O,inconclusive: 100 µM,
CCc1cccc(C)c1N(C(=O)CS(=O)(=O)O)C(C)COC (stereo not given),,inactive
CCCCCCCCCCCC(=O)OCC,,inactive
O=S(=O)(O)c1cc(S(=O)(=O)O)c2ccc3c(S(=O)(=O)O)cc(S(=O)(=O)O)c4ccc1c2c43,,inactive
Oc1ccccc1O,,inactive
CCc1c(Br)c(Br)c(Br)c(Br)c1Br,,inactive
Oc1ccc2c(c1)OC[C@@H](N1CCC(O)(c3ccc(F)cc3)CC1)[C@H]2O,,inactive
C=Cc1ccc(C)cc1,inconclusive: 100 µM,
Nc1nc2ccccc2[nH]1,inconclusive: 99 µM,
OCC(F)(F)C(F)(F)C(F)(F)C(F)(F)C(F)(F)C(F)(F)F,inconclusive: 50 µM,
C#CC(C)N(C)C(=O)Nc1ccc(Cl)cc1 (stereo not given),,inactive
CO[Si](CCCNCCN)(OC)OC,inconclusive: 100 µM,
O=S(=O)(O)c1ccc(Cl)cc1,inconclusive: 18.8 µM,
CCC(C)c1ccccc1 (stereo not given),,inactive
C1=CCCC=CCCC=CCC1,active: 26.9 µM,
CC(=O)Nc1c(I)c(NC(C)=O)c(I)c(C(=O)O)c1I,inconclusive: 100 µM,

# 3 compounds from above, sorted by molecular weight, low to high:
Structure (SMILES),AC50,outcome
C1=CCCC=CCCC=CCC1,active: 26.9 µM,
O=S(=O)(O)c1ccc(Cl)cc1,inconclusive: 18.8 µM,
CO[Si](CCCNCCN)(OC)OC,inconclusive: 100 µM,

# From PubChem BioAssay (EPA / NIEHS)
